Data reported in patent publication US8501992B2, “Hydroxyphenyl sulfonamides as antiapoptotic bcl inhibitors” (Bristol-Myers Squibb Company, priority 2008, dated 2013).
pKi: −log10 of the molar value. Some of these results come from one statement about several compounds together.

Target: T1, Bcl-b (Homo sapiens, UniProt Q9HD36)
T1 construct: without their C-terminal transmembrane domain; GST; made in house
T1 sequence (Q9HD36 1-182 limits assumed): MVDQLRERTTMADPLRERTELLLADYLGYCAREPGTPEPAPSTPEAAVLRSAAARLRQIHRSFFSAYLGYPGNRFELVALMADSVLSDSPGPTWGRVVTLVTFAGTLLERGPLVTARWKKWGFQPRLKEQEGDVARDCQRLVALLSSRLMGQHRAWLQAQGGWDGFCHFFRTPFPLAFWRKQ
Assay: Bclb/Bim fluorescence polarization assay (FPA)
Assay type: binding
Settings: BIM BH3 peptide 5 nM, Bcl-b 40 nM, Ki calculated from FPA data
Source text: Compounds were profiled for their ability to disrupt in vitro binding interactions in fluorescence polarization assays (FPAs) using synthetic fluorochrome-labeled Bcl homology 3 (BH3) peptides derived from BIM [(FAM)-Ahx-[…]-NH2 (SEQ ID NO: 1) (GenBank Accession No. O43521)] or BAK [Ac-GQVGRQLAIIGE-LYS(FAM)-INR-NH2 (SEQ ID NO:2) (GenBank Accession No. Q16611) amino acid sequences and four bacterial recombinant proteins [Bcl-b (GenBank Accession No. Q9HD36), Bcl-2 (GenBank Accession No. P10415), Bcl-Xl (GenBank Accession No. Q07817), Mcl-1 (GenBank Accession No. Q07820)] without their C-terminal transmembrane domain. Proteins were purified from bacterial lysates using their glutathione S-transferase (GST)-tag (Bcl-b, Bcl-2, Mcl-1) or His6-tag (Bcl-Xl) and following one-step affinity chromatography procedures. Dissociation constants (Kd) for peptide binding protein were determined by fluorescence polarization in FPAs measuring BIM BH3 peptide binding Bcl-b, Mcl-1 or Bcl-2 protein or BAK BH3 peptide binding Bcl-Xl protein. The Kd values were generated by fitting the experimental data using a sigmoidal dose-response nonlinear regression model.
Compound inhibitory concentration values, IC50 (50% reduction in fluorescence polarization), were determined using fluorochrome-labeled BH3 peptides and recombinant Bcl proteins in fluorescence polarization assays (FPAs). Compounds diluted in DMSO (0.5 ul) were transferred (in duplicate) to individual wells of a 384-well plate. The fluorochrome-labeled peptide was added followed by recombinant protein addition. Each binding FPA reaction (50 ul) contained BIM BH3 peptide (5 nM) or BAK BH3 peptide (1.5 nM) and Bcl-b (40 nM), Mcl-1 (28 nM), Bcl-2 (11 nM) or Bcl-Xl. (5 nM) protein suspended in assay buffer [20 mM sodium phosphate, pH 7.4, 1 mM EDTA, 50 mM NaCl., 0.05% Pluronic F68]. Reaction mixtures were incubated at ambient temperature for 60 minutes prior to measuring polarization (mP) using an Analyst (LJL, Molecular Devices, Sunnyvale, Calif.) programmed to detect an emission wavelength of 530 nm after excitation (excitation wavelength=485 nm).
Competitive compound inhibition constants (Ki) were calculated using FPA experimental data and a mathematical equation, Ki=[I]50/([L]50/Kd+[P]0/Kd+1), where [I]50 denotes free inhibitor concentration at 50% inhibition, [L]50 is free labeled ligand concentration at 50% inhibition, [P]0 is free protein concentration at 0% inhibition, and Kd is the dissociation constant of the protein-ligand complex.

pKi, ≥ 5.00:
Cc1ccc(C(=O)NCc2cccc(CN(Cc3ccc(F)cc3)S(=O)(=O)c3cc(Cl)cc(Cl)c3O)c2)cc1 [Example 45, N-(3-((3,5-dichloro-N-(4-fluorobenzyl)-2-hydroxyphenyl-sulfonamido)methyl)benzyl)-4-methylbenzamide]
O=C(NCc1cccc(CN(Cc2ccc(-c3ccccc3)cc2)S(=O)(=O)c2cc(Cl)cc(Cl)c2O)c1)c1cc(Cl)cc(Cl)c1O [Example 46, N-(3-((N-(biphenyl-4-ylmethyl)-3,5-dichloro-2-hydroxyphenyl-sulfonamido)methyl)benzyl)-3,5-dichloro-2-hydroxybenzamide]
O=S(=O)(NCc1cccc(CN(Cc2ccc(-c3ccccc3)cc2)S(=O)(=O)c2cc(Cl)cc(Cl)c2O)c1)c1cc(Cl)cc(Cl)c1 [Example 47, N-(biphenyl-4-ylmethyl)-3,5-dichloro-N-(3-((3,5-dichlorophenyl-sulfonamido)methyl)benzyl)-2-hydroxybenzenesulfonamide]
O=S(=O)(NCc1cccc(CN(Cc2ccc(-c3ccccc3)cc2)S(=O)(=O)c2cc(Cl)cc(Cl)c2O)c1)c1ccc2ccccc2c1 [Example 48, N-(3-((N-(biphenyl-4-ylmethyl)-3,5-dichloro-2-hydroxyphenyl-sulfonamido)methyl)benzyl)naphthalene-2-sulfonamide]
O=C(O)c1ccc(S(=O)(=O)NCc2cccc(CN(Cc3ccc(-c4ccccc4)cc3)S(=O)(=O)c3cc(Cl)cc(Cl)c3O)c2)cc1 [Example 49, 4-(N-(3-((N-(biphenyl-4-ylmethyl)-3,5-dichloro-2-hydroxyphenyl-sulfonamido)methyl)benzyl)sulfamoyl)benzoic acid]
O=S(=O)(NCc1cccc(CN(Cc2ccc(Oc3ccc(F)cc3)cc2)S(=O)(=O)c2cc(Cl)cc(Cl)c2O)c1)c1cc(Cl)cc(Cl)c1O [Example 50, 3,5-dichloro-N-(3-((3,5-dichloro-2-hydroxyphenyl-sulfonamido)methyl)benzyl)-N-(4-(4-fluorophenoxy)benzyl)-2-hydroxybenzenesulfonamide]
O=S(=O)(NCc1cccc(CN(Cc2ccc(OC(F)F)cc2)S(=O)(=O)c2cc(Cl)cc(Cl)c2O)c1)c1cc(Cl)cc(Cl)c1O [Example 51, 3,5-dichloro-N-(3-((3,5-dichloro-2-hydroxyphenylsulfonamido)methyl)benzyl)-N-(4-(difluoromethoxy)benzyl)-2-hydroxy-benzenesulfonamide]
O=S(=O)(NCc1cccc(CN(Cc2ccc(-c3ccccc3)cc2)S(=O)(=O)c2cc(Cl)cc(Cl)c2O)c1)c1ccccc1 [Example 52, N-(biphenyl-4-ylmethyl)-3,5-dichloro-2-hydroxy-N-(3-(phenylsulfonamido-methyl)benzyl) benzenesulfonamide]
CSc1ccc(CN(Cc2cccc(CNS(=O)(=O)c3cc(Cl)cc(Cl)c3O)c2)S(=O)(=O)c2cc(Cl)cc(Cl)c2O)cc1 [Example 53, 3,5-dichloro-N-(3-((3,5-dichloro-2-hydroxyphenyl-sulfonamido)methyl)benzyl)-2-hydroxy-N-(4-(methylthio)benzyl)benzenesulfonamide]
CCOc1cccc(CN(Cc2cccc(CNS(=O)(=O)c3cc(Cl)cc(Cl)c3O)c2)S(=O)(=O)c2cc(Cl)cc(Cl)c2O)c1 [Example 54, 3,5-dichloro-N-(3-((3,5-dichloro-2-hydroxyphenyl-sulfonamido)methyl)benzyl)-N-(3-ethoxybenzyl)-2-hydroxybenzenesulfonamide]
O=C(O)c1ccc(Cl)c(S(=O)(=O)NCc2cccc(CN(Cc3ccc(-c4ccccc4)cc3)S(=O)(=O)c3cc(Cl)cc(Cl)c3O)c2)c1 [Example 55, 3-(N-(3-((N-(biphenyl-4-ylmethyl)-3,5-dichloro-2-hydroxyphenyl-sulfonamido)methyl)benzyl)sulfamoyl)-4-chlorobenzoic acid]
CS(=O)(=O)c1ccc(CN(Cc2cccc(CNS(=O)(=O)c3cc(Cl)cc(Cl)c3O)c2)S(=O)(=O)c2cc(Cl)cc(Cl)c2O)cc1 [Example 56, 3,5-dichloro-N-(3-((3,5-dichloro-2-hydroxyphenyl-sulfonamido)methyl)benzyl)-2-hydroxy-N-(4-(methylsulfonyl)benzyl) benzenesulfonamide]
O=C(O)c1cc(S(=O)(=O)NCc2cccc(CN(Cc3ccc(-c4ccccc4)cc3)S(=O)(=O)c3cc(Cl)cc(Cl)c3O)c2)c(F)cc1Cl [Example 57, 5-(N-(3-((N-(biphenyl-4-ylmethyl)-3,5-dichloro-2-hydroxyphenyl-sulfonamido)methyl)benzyl)sulfamoyl)-2-chloro-4-fluorobenzoic acid]
O=S(=O)(NCc1cccc(CN(Cc2cccc(OCCO)c2)S(=O)(=O)c2cc(Cl)cc(Cl)c2O)c1)c1cc(Cl)cc(Cl)c1O [Example 58, 3,5-dichloro-N-(3-((3,5-dichloro-2-hydroxyphenylsulfonamido)methyl)benzyl)-2-hydroxy-N-(3-(2-hydroxyethoxy)benzyl) benzenesulfonamide]
COc1cc(CN(Cc2cccc(CNS(=O)(=O)c3cc(Cl)cc(Cl)c3O)c2)S(=O)(=O)c2cc(Cl)cc(Cl)c2O)cc(OC)c1OC [Example 59, 3,5-dichloro-N-(3-((3,5-dichloro-2-hydroxyphenylsulfonamido)methyl)benzyl)-2-hydroxy-N-(3,4,5-trimethoxybenzyl) benzenesulfonamide]
O=C(O)c1cc(S(=O)(=O)N(Cc2ccc(F)cc2)Cc2cc(Cl)cc(CN(Cc3ccc(F)cc3)S(=O)(=O)c3cc(Cl)cc(Cl)c3O)c2)c(F)cc1Cl [Example 60, 2-chloro-5-(N-(3-chloro-5-((3,5-dichloro-N-(4-fluorobenzyl)-2-hydroxyphenylsulfonamido)methyl)benzyl)-N-(4-fluorobenzyl)sulfamoyl)-4-fluorobenzoic acid]
CCN(CC)CCOc1ccc(CN(Cc2cccc(CNS(=O)(=O)c3cc(Cl)cc(Cl)c3O)c2)S(=O)(=O)c2cc(Cl)cc(Cl)c2O)cc1 [Example 61, 3,5-dichloro-N-(3-((3,5-dichloro-2-hydroxyphenylsulfonamido)methyl)benzyl)-N-(4-(2-(diethylamino)ethoxy)benzyl)-2-hydroxybenzenesulfonamide]
O=C(O)COc1cccc(CN(Cc2cccc(CNS(=O)(=O)c3cc(Cl)cc(Cl)c3O)c2)S(=O)(=O)c2cc(Cl)cc(Cl)c2O)c1 [Example 62, 2-(3-((3,5-dichloro-N-(3-((3,5-dichloro-2-hydroxyphenylsulfonamido)methyl)benzyl)-2-hydroxyphenylsulfonamido)methyl)phenoxy)acetic acid]
O=C(NCc1cccc(CN(Cc2ccc(-c3ccccc3)cc2)S(=O)(=O)c2cc(Cl)cc(Cl)c2O)c1)c1ccc(SC(F)(F)F)cc1 [Example 63]
O=S(=O)(NCc1cccc(CN(Cc2ccccc2SC(F)(F)F)S(=O)(=O)c2cc(Cl)cc(Cl)c2O)c1)c1cc(Cl)cc(Cl)c1O [Example 64]
O=S(=O)(NCc1cccc(CN(Cc2cccc(SC(F)(F)F)c2)S(=O)(=O)c2cc(Cl)cc(Cl)c2O)c1)c1cc(Cl)cc(Cl)c1O [Example 65]
O=S(=O)(NCc1cccc(CN(Cc2ccc(-c3ccccc3)cc2)S(=O)(=O)c2cc(Cl)cc(Cl)c2O)c1)c1ccc(F)c(S(=O)(=O)C(F)(F)F)c1 [Example 66, N-(biphenyl-4-ylmethyl)-3,5-dichloro-N-(3-((4-fluoro-3-(trifluoromethylsulfonyl)phenylsulfonamido)methyl)benzyl)-2-hydroxybenzenesulfonamide]
CC(C)CN(Cc1cc(Cl)cc(CN(CC(C)C)S(=O)(=O)c2cc(Cl)cc(Cl)c2O)c1)S(=O)(=O)c1cc(Cl)cc(Cl)c1O [Example 67, N,N′-(5-chloro-1,3-phenylene)bis(methylene)bis(3,5-dichloro-2-hydroxy-N-isobutylbenzenesulfonamide)]
